Measurements taken from the supplement of paper PMC11098740.
This is one part of the list. Single values are uncertain, as repeats are few or missing.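 Pooled together, 41 HAP1 clones carry intronic fluorescent tags on 61 cancer-associated proteins, and each clone is recognized by its imaging pattern. Measurements are benchmarked against DMSO-treated control wells. dBET6, a BRD4 degrader, served as the positive control.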

By UniProt entry, the sequences of proteins in these tests, tags left out.
UniProt O14980, whole entry: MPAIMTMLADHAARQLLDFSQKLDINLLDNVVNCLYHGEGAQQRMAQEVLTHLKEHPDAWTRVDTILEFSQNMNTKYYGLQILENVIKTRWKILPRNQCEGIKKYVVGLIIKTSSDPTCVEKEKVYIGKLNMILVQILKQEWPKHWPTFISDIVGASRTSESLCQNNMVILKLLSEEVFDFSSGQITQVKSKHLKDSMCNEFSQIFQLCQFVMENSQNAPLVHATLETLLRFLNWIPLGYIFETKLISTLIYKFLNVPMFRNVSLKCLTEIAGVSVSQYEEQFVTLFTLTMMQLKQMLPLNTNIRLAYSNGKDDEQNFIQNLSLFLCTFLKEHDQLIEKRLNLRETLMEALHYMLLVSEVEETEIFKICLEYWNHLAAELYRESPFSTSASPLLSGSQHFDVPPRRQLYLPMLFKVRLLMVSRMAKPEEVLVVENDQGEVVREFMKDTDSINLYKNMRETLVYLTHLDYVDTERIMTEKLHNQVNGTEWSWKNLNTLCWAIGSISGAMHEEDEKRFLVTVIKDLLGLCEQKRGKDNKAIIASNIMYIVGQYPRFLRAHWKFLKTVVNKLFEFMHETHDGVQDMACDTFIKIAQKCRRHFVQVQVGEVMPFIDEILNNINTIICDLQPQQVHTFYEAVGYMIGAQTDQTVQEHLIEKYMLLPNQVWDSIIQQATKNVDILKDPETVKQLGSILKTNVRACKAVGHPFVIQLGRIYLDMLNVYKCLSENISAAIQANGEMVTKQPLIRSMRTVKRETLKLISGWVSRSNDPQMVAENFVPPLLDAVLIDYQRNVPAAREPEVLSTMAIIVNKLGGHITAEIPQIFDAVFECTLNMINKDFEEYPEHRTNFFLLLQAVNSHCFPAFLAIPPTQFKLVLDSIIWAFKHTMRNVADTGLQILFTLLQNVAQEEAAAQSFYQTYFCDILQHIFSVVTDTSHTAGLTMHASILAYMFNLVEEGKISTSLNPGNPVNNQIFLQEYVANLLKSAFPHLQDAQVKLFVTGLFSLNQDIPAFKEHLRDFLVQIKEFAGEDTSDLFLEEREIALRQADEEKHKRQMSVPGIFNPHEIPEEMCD

What was measured:
[1] = molecular target: XPO1 (intron 15 mScarlet tag, HAP1) (UniProt O14980); test: XPO1 fluorescence intensity change vs DMSO (log2 fold change); higher = more XPO1 protein; settings: 6 h
[2] = molecular target: BRD4 (intron 10 mScarlet tag, HAP1) (UniProt O60885); test: BRD4 median nuclear fluorescence intensity change vs DMSO (log2 fold change); higher = more BRD4 protein; settings: 6 h

| Compound | XPO1 fluorescence intensity change (log2) [1] | BRD4 median nuclear fluorescence intensity change (log2) [2] |
| --- | --- | --- |
| COc1ccc(CNS(=O)(=O)c2ccc(OC)c3ccccc23)cc1 (10 µM) | 0.011 | 0.0728 |
| Nc1nc(CCl)nc2sc3c(c12)CCCC3 (10 µM) | -0.0653 | 0.0077 |
| Cc1cc(N2CCN(CCOc3ccc(Cl)cc3)CC2)nc(N)n1 (10 µM) | 0.0643 | -0.0246 |
| COc1ccc(-c2noc(CCl)n2)cc1OC (0.1 µM) | -0.136 | 0.056 |
| CCOc1ccccc1C(=O)NCCCC(=O)Nc1ccc(F)c(F)c1 (10 µM) | -0.276 | -0.0467 |
| FC(F)(F)c1cc(Cl)ccc1-n1nnnc1CCl (10 µM) | 0.33 | 0.087 |
| Cc1nn(-c2nc3ccccc3[nH]2)c(=O)c2ccccc12 (1 µM) | 0.103 | -0.0541 |
| Cc1cc(N2CCN(c3ccc(Br)cn3)CC2)nc(C(C)C)n1 (10 µM) | 0.026 | 0.0647 |
| O=C(NCCCOCc1ccco1)c1cc2c(nc3sccn32)s1 (10 µM) | 0.137 | 0.0919 |
| COc1ccc(-n2c(CCl)nc3ccccc32)cc1 (10 µM) | -0.0863 | 0.0219 |
| CCOC(=O)c1c(-c2cccs2)csc1NC(=O)CCCl (10 µM) | -0.234 | 0.00914 |
| Cc1nc2ccc(C(=O)OC(C)C(=O)c3c(C)[nH]c4ccccc34)cc2nc1C (stereo unspecified) (10 µM) | -0.268 | -0.0362 |
| Cc1cc(C)c(NC(=O)c2cnc(C)cn2)c(Cl)c1 (10 µM) | -0.0914 | -0.0631 |
| COCCOC(=O)c1c(C)[nH]c(C(=O)Nc2ccccc2Cl)c1C (1 µM) | 0.0445 | 0.0431 |
| COc1ccc(-c2cc(-c3c(O)ccc4ccccc34)[nH]n2)cc1 (10 µM) | 0.104 | -0.0816 |
| Cc1cc(C)c(-c2csc(NC(=O)c3ccccn3)n2)c(C)c1 (10 µM) | -0.0188 | 0.0214 |
| CC(C)c1ccccc1OCC(=O)Nc1ccc2[nH]c(=O)c(=O)[nH]c2c1 (10 µM) | -0.0282 | -0.0472 |
| Cc1ccc(C(C)N(C)c2ncnc3ccsc23)s1 (stereo unspecified) (10 µM) | 0.00133 | 0.095 |
| O=C(Nc1ccc(-c2nc3ccccc3[nH]2)cc1)C1CCC1 (10 µM) | 0.0837 | 0.00263 |
| CC(=O)OCC(=O)Nc1ccc2c(c1)OCO2 (10 µM) | -0.0725 | 0.0147 |
| COc1ccc(S(=O)(=O)Nc2cccc(-n3cccn3)c2)cc1 (10 µM) | 0.00727 | 0.196 |

| Compound | XPO1 fluorescence intensity change (log2) [1] | BRD4 median nuclear fluorescence intensity change (log2) [2] |
| --- | --- | --- |
| CCOc1ccccc1NS(=O)(=O)c1ccc(OC)cc1 (10 µM) | -0.181 | -0.0239 |
| Cc1cc(C(=O)N(C)Cc2cnn(C)c2)c(C)n1Cc1ccco1 (10 µM) | 0.117 | 0.131 |
| Cc1cc(C(=O)N2CCN(c3cc(Cl)ccc3C)CC2)c2ccccc2n1 (1 µM) | 0.0412 | -0.0416 |
| CC(C(=O)N1CCc2[nH]c3ccc(Br)cc3c2C1)n1cnc2ccccc21 (stereo unspecified) (1 µM) | 0.00884 | 0.0257 |
| O=C(NCc1ccoc1)c1cc2c(nc3sccn32)s1 (10 µM) | 0.0973 | 0.0719 |
| COc1ccccc1Nc1nc(-c2ccc(S(C)(=O)=O)cc2)cs1 (10 µM) | -0.38 | 0.174 |
| CNC(=O)C1CCN(Cc2cc(Cl)c3ccccc3c2O)CC1 (0.1 µM) | -0.00387 | 0.0509 |
| Nc1ccccc1C(=O)Nc1ccc(Cl)cn1 (0.1 µM) | -0.165 | 0.0367 |
| O=C(/C=C/c1ccc(F)c(Br)c1)c1ccc(O)c(CCCl)c1 (10 µM) | -0.409 | -0.0693 |
| N#CC(C#N)=C1C=CC=CN1/C(=C/c1ccc(F)cc1)C(=O)c1ccccc1 (1 µM) | -0.2 | 0.165 |
| COc1ccc(S(=O)(=O)NCCc2c(C)[nH]c3ccc(C)cc23)c2ccccc12 (10 µM) | 0.141 | -0.00519 |
| CC1CCc2c(sc3nc(CCl)nc(N)c23)C1 (stereo unspecified) (10 µM) | -0.202 | -0.056 |
| COc1cc2c(cc1OC)CN(C(C)C(=O)Nc1ccccc1Cl)CC2 (stereo unspecified) (10 µM) | 0.131 | 0.0306 |
| COc1ccc(Cl)cc1C(=O)N1CCN(c2ccccc2F)CC1 (10 µM) | -0.0343 | 0.0559 |
| COc1ccc(C)cc1C(C)Nc1ncnc2ccsc12 (stereo unspecified) (10 µM) | -0.0344 | 0.0861 |
| O=C(Nc1ccc(N2CCCCC2)c2ccncc12)c1ccccc1 (10 µM) | 0.00969 | 0.0274 |
| Cn1nc(C(=O)Nc2nc(CN3CCCC3)cs2)c2ccccc2c1=O (1 µM) | -0.013 | 0.0408 |
| O=C(NCCS(=O)(=O)c1ccccc1)c1cc2c(nc3sccn32)s1 (0.1 µM) | -0.0725 | 0.0425 |
| Cn1nc(C(=O)Nc2cccc(C3SCCCS3)c2)c2ccccc2c1=O (0.1 µM) | -0.0742 | 0.00995 |
| Cc1nc2ccc(Cl)cc2cc1C(=O)NCCNc1ncnc2sccc12 (10 µM) | -0.0264 | 0.0407 |
| CC[C@H](C)n1cc(C)c2c(C(=O)NCc3c(C)cc(C)[nH]c3=O)cc(-c3ccc(N4CCNCC4)nc3)cc21 (10 µM) | 0.0144 | 0.0874 |

| Compound | XPO1 fluorescence intensity change (log2) [1] | BRD4 median nuclear fluorescence intensity change (log2) [2] |
| --- | --- | --- |
| CCc1cc(-c2[nH]ncc2-c2ccc3c(c2)OCCO3)c(O)cc1OC (10 µM) | -0.053 | -0.0813 |
| COc1cc(-c2noc(CCl)n2)ccc1OC(F)F (10 µM) | -0.498 | 0.0682 |
| O=C(NC1CCN(Cc2ccccc2)C1)c1ccc(OC(F)(F)F)cc1 (stereo unspecified) (10 µM) | 0.0343 | 0.144 |
| COc1cccc(N2CCN(C(=O)c3cccnc3N3CCCC3)CC2)c1 (1 µM) | -0.0245 | -0.0242 |
| CN(CCOc1ccccc1F)C(=O)c1cc2c(nc3sccn32)s1 (10 µM) | 0.165 | 0.00964 |
| O=C(CSc1nc2ccccc2[nH]1)Nc1ccc(Cl)cn1 (10 µM) | -0.0584 | 0.0511 |
| Cc1ccccc1CN1C(=O)C(O)(CC(=O)c2ccccc2O)c2ccccc21 (stereo unspecified) (10 µM) | -0.232 | 0.0661 |
| Nc1nc2[nH]cnc2c(=S)[nH]1 [tioguanine] (10 µM) | -0.111 | 0.0352 |
| Cc1sc2nc(-c3ccccn3)nc(NCCCO)c2c1-c1ccccc1 (10 µM) | -0.024 | 0.0477 |
| N#CC(C#N)=C1C=CC=CN1/C(=C/c1cccs1)C(=O)c1ccc(Br)cc1 (10 µM) | -0.408 | 0.149 |
| CN(Cc1ccc(-c2ccc(Cl)cc2)o1)C(=O)Cn1c(=O)oc2ccccc21 (10 µM) | -0.358 | 0.00294 |
| COC(=O)C1=C(C)N(c2ccc3c(c2)OCCO3)C(=S)NC1c1ccc(F)cc1 (stereo unspecified) (10 µM) | -0.013 | 0.0188 |
| CC(C)(C)c1csc(NC(=O)c2ccc(S(=O)(=O)C(F)F)cc2)n1 (10 µM) | -0.17 | -0.0473 |
| Nc1ccc(C(=O)Nc2cccnc2)cc1 (10 µM) | 0.0212 | 0.198 |
| Cn1c(=O)c2c(nc(N3CCNCC3)n2Cc2nnc(-c3ccc(Cl)c(Cl)c3)o2)n(C)c1=O (10 µM) | -0.0496 | -0.0707 |
| CCc1nc(CSc2nc(C)c(C(=O)Nc3ccccc3)cc2C#N)cs1 (1 µM) | -0.109 | -0.101 |
| CCOC(=O)Cc1csc(NC(=O)c2ccc(-n3cccc3)cc2)n1 (10 µM) | -0.0345 | 0.00651 |
| COC(=O)C1=C(CCl)N(C)C(=O)NC1c1ccccc1 (stereo unspecified) (10 µM) | 0.145 | 0.072 |
| c1ccc(-c2nn(-c3ccccc3)[n+](-c3ccccc3)n2)cc1 (10 µM) | 0.031 | -0.0352 |
| COc1ccccc1Nc1nc(N)nc(CCl)n1 (1 µM) | -0.208 | -0.00907 |
| N#CC(C#N)=C1C=CC=CN1/C(=C/c1ccc(F)cc1)C(=O)c1ccc(Br)cc1 (1 µM) | 0.206 | -0.00345 |

| Compound | XPO1 fluorescence intensity change (log2) [1] | BRD4 median nuclear fluorescence intensity change (log2) [2] |
| --- | --- | --- |
| O=C(/C=C/c1cccc(Cl)c1)c1ccc(O)c(CCCl)c1 (10 µM) | -0.317 | -0.131 |
| O=C(Nc1ccc(N2CCCC2=O)cc1)c1cccs1 (10 µM) | -0.157 | -0.0887 |
| O=[N+]([O-])c1ccc2c(c1)nc(CCl)n2-c1ccc(F)cc1 (10 µM) | 0.151 | 0.0646 |
| CCOC(=O)C1=C(CCl)NC(=O)NC1c1ccccc1 (stereo unspecified) (1 µM) | 0.0992 | -0.0404 |
| Cc1c(CCCl)c(Cl)n2c(nc3ccccc32)c1C#N (10 µM) | 0.0937 | 0.0428 |
| O=C(NCc1ccccc1)c1nnc(CCl)s1 (10 µM) | 0.0274 | 0.053 |
| O=C(Nc1nc(-c2ccccn2)cs1)c1ccc2c(c1)OCCCO2 (10 µM) | -0.243 | 0.063 |
| CCOc1ccccc1OCc1nc(N)nc(Nc2ccc(C)cc2)n1 (1 µM) | -0.214 | -0.179 |
| Cn1cnc([N+](=O)[O-])c1Sc1ncnc2[nH]cnc12 [azathioprine] (10 µM) | -0.00565 | 0.0116 |
| COc1cc(OC)c2[nH]c(C(=O)Nc3ccc(F)cc3)cc2c1 (10 µM) | 0.0184 | 0.00257 |
| CCN(CCN(C)C)C(=O)CNCc1cc(C(=O)O)ccn1 (20 µM) | -0.0387 | 0.0907 |
| N#Cc1c(NC(=O)CCCl)sc2c1CCCC2 (10 µM) | -0.0586 | 0.00312 |
| O=C(Oc1c(CN2CCOCC2)cc(Cl)c2cccnc12)c1ccccc1 (10 µM) | 0.256 | -0.0344 |
| Cc1cc(N2CCN(c3ccc(C(F)(F)F)cn3)CC2)nc(C(C)C)n1 (10 µM) | -0.0474 | 0.0883 |
| O=S1(=O)C=CC2ON=C(c3c(Cl)cccc3Cl)C21 (stereo unspecified) (10 µM) | -0.282 | 0.00844 |
| COc1ccccc1-c1cc(C(=O)Nc2c3c(nn2C)CCC3)no1 (10 µM) | -0.0354 | -0.0113 |
| O=C(CSc1cccc[n+]1[O-])Nc1ccc(N2CCc3ccccc32)cc1 (10 µM) | 0.0434 | 0.0689 |
| COc1ccc(/C=C(\C(=O)c2cccs2)N2C=CC=CC2=C(C#N)C#N)cc1OC (1 µM) | 0.0267 | 0.00328 |
| COc1ccc(-n2c(-c3ccccc3)c[n+]3ccccc23)cc1 (10 µM) | -0.0214 | 0.122 |
| CCN(CC)c1nc2sc(C(=O)NCCCn3cccn3)cc2s1 (10 µM) | -0.0589 | -0.0416 |
